From article PMC11096414 come the findings set out here.

Sequences of proteins named here, by UniProt entry; tags and fusion partners are left off. A change or cut given only in a name is not applied to a line headed by its entry.
UniProt Q7Z434: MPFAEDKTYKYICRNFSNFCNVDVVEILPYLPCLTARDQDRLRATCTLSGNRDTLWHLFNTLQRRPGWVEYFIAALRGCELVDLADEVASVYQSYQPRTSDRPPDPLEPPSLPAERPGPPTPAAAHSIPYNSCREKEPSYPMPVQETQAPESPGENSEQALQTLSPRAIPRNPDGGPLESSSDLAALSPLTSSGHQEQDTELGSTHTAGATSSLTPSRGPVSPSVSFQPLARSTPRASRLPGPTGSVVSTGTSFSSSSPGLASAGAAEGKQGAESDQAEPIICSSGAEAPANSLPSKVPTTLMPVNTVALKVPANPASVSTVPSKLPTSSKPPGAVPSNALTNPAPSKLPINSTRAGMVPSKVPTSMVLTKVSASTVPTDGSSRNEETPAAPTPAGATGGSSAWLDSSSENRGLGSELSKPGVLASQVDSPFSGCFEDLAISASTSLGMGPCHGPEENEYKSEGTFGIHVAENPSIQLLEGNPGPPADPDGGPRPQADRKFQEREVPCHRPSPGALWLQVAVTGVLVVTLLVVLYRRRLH

These are yes or no findings as the source states them, for the method shown. Binding seen in cells or lysates may run through a third protein. Some results given as binding are weak or reduced against the parent protein; the word gives no strength. Where a sequence is shown, tags or fusion partners need not be part of it.

The test has as its target Flag-tagged MAVS C283A (UniProt Q7Z434). Briefly: co-IP.

B1: GFP-tagged TBK1 (enzyme, UniProt Q9UHD2 1-729)
chain: MQSTSNHLWLLSDILGQGATANVFRGRHKKTGDLFAIKVFNNISFLRPVDVQMREFEVLKKLNHKNIVKLFAIEEETTTRHKVLIMEFCPCGSLYTVLEEPSNAYGLPESEFLIVLRDVVGGMNHLRENGIVHRDIKPGNIMRVIGEDGQSVYKLTDFGAARELEDDEQFVSLYGTEEYLHPDMYERAVLRKDHQKKYGATVDLWSIGVTFYHAATGSLPFRPFEGPRRNKEVMYKIITGKPSGAISGVQKAENGPIDWSGDMPVSCSLSRGLQVLLTPVLANILEADQEKCWGFDQFFAETSDILHRMVIHVFSLQQMTAHKIYIHSYNTATIFHELVYKQTKIISSNQELIYEGRRLVLEPGRLAQHFPKTTEENPIFVVSREPLNTIGLIYEKISLPKVHPRYDLDGDASMAKAITGVVCYACRIASTLLLYQELMRKGIRWLIELIKDDYNETVHKKTEVVITLDFCIRNIEKTVKVYEKLMKINLEAAELGEISDIHTKLLRLSSSQGTIETSLQDIDSRLSPGGSLADAWAHQEGTHPKDRNVEKLQVLLNCMTEIYYQFKKDKAERRLAYNEEQIHKFDKQKLYYHATKAMTHFTDECVKKYEAFLNKSEEWIRKMLHLRKQLLSLTNQCFDIEEEVSKYQEYTNELQETLPQKMFTASSGIKHTMTPIYPSSNTLVEMTLGMKKLKEEMEGVVKELAENNHILERFGSLTMDGGLRNVDCL
Consider B1, for which the binding entry is listed as “binds”.
